We go through 1 substance from paper doi:10.1101/2023.06.30.547196.

Amino acid sequences for entries named in this document (tags omitted).
UniProt Q8IY18: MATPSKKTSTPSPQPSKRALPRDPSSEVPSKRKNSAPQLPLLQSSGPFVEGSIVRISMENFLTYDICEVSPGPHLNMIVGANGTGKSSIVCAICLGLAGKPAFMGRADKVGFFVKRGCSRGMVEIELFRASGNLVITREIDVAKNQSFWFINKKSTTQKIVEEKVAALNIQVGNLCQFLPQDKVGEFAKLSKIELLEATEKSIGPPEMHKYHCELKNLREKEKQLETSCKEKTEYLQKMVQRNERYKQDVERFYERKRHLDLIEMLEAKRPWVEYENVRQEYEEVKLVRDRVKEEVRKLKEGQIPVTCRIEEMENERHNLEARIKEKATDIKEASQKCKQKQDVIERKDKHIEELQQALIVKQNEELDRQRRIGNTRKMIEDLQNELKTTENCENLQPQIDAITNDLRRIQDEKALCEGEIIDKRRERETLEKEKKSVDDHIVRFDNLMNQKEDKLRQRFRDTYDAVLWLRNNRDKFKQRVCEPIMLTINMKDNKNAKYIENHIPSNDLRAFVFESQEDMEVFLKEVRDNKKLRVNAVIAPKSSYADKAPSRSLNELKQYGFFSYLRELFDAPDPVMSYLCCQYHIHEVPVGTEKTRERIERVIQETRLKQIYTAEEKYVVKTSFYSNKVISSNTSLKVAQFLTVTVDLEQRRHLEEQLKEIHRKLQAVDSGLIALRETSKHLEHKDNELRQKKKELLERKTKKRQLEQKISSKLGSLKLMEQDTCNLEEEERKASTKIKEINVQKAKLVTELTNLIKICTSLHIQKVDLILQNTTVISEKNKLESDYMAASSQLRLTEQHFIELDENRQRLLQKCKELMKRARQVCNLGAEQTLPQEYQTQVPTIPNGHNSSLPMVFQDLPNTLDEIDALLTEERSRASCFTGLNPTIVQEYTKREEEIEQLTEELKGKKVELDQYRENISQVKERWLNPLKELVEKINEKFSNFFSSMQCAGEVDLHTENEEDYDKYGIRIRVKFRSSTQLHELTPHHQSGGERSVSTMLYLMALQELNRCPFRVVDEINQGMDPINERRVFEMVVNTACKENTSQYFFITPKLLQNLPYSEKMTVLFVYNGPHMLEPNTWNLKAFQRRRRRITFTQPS

The target of the assay is T1, Flag-tagged full-length NFATC2IP (human) (UniProt Q8NCF5).
T1 sequence: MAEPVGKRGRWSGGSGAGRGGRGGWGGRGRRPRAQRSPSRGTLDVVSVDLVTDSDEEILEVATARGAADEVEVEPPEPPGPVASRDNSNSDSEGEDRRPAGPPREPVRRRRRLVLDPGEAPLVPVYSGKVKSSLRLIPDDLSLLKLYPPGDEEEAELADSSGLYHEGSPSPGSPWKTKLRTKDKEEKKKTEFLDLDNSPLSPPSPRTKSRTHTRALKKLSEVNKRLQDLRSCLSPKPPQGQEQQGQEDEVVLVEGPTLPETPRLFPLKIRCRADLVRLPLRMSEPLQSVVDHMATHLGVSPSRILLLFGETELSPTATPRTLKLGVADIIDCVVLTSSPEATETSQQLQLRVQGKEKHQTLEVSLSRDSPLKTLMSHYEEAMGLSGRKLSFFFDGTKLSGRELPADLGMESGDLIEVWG
The experiment in a line: co-IP.

No constants are given. Whether binding was seen depends on the method and setting. Binding seen in cells or lysates may run through a third protein. Some entries that bind do so weakly or less than the wild type. Sequences can lack the tags named with a protein.

Regarding “endogenous SMC5 (from UniProt Q8IY18 1-1101)”, the binding entry is listed as “binds”.
